These are yes or no findings as the source states them, for the method shown. Some entries that bind do so weakly or less than the wild type.
Columns and labels:
[1] = target: biotinylated sEGFR-His6 (human) (UniProt P00533); assay: phage ELISA, chemiluminescence; biotinylated receptor captured on streptavidin-coated wells
[2] = target: biotinylated sEGFR-MMB (human); assay: as above
[3] = target: sEGFR-MMB (dimeric sEGFR mimetibody) (human); assay: phage ELISA, chemiluminescence; protein coated on the wells; detection anti-M13-HRP
[4] = target: biotinylated sEGFR-His6 (human) (UniProt P00533); assay: phage ELISA, streptavidin capture
[5] = target: sEGFR-MMB (dimeric sEGFR mimetibody) (human); assay: phage ELISA, coated sEGFR-MMB
b-sEGFR-strep (human) = b-sEGFR-strep (human) (UniProt P00533); assay: phage ELISA, chemiluminescence; receptor captured on streptavidin-coated wells
[6] = target: biotinylated sEGFR-His6 (human) (UniProt P00533); assay: phage ELISA, biotinylated sEGFR-His on streptavidin
[7] = target: biotinylated sEGFR-MMB (human); assay: phage ELISA, biotinylated sEGFR-MMB on streptavidin
[8] = target: biotinylated sEGFR-His6 (human) (UniProt P00533); assay: phage ELISA, luminescence; biotinylated receptor captured on streptavidin [panel C]
[9] = target: biotinylated sEGFR-MMB (human); assay: as above
[10] = target: EGF + sEGFR-MMB complex (human) (UniProt P01133); assay: phage ELISA, luminescence; coated sEGFR-MMB with EGF added before the phage [panel B]
[11] = target: sEGFR-MMB (dimeric sEGFR mimetibody) (human); assay: phage ELISA
[12] = target: biotinylated sEGFR-His6 (human) (UniProt P00533); assay: phage ELISA
[13] = target: sEGFR-MMB (dimeric sEGFR mimetibody) (human); assay: phage ELISA, luminescence; sEGFR-MMB coated on the wells [panel A]
[14] = target: EGF + sEGFR-MMB complex (human) (UniProt P01133); assay: phage ELISA, coated sEGFR-MMB with EGF
[15] = target: EGF + sEGFR-MMB complex (human) (UniProt P01133); assay: phage ELISA, EGF + sEGFR-MMB complex
[16] = target: Human extracellular EGFR-His6 (sEGFR-His6) (human) (UniProt P00533); assay: phage ELISA, coated sEGFR-His6

The chains behind the UniProt entries cited, without tags or fusion partners. Where a name states a change or a piece, a line headed by the entry shows the natural chain unless it says otherwise.
UniProt P01133: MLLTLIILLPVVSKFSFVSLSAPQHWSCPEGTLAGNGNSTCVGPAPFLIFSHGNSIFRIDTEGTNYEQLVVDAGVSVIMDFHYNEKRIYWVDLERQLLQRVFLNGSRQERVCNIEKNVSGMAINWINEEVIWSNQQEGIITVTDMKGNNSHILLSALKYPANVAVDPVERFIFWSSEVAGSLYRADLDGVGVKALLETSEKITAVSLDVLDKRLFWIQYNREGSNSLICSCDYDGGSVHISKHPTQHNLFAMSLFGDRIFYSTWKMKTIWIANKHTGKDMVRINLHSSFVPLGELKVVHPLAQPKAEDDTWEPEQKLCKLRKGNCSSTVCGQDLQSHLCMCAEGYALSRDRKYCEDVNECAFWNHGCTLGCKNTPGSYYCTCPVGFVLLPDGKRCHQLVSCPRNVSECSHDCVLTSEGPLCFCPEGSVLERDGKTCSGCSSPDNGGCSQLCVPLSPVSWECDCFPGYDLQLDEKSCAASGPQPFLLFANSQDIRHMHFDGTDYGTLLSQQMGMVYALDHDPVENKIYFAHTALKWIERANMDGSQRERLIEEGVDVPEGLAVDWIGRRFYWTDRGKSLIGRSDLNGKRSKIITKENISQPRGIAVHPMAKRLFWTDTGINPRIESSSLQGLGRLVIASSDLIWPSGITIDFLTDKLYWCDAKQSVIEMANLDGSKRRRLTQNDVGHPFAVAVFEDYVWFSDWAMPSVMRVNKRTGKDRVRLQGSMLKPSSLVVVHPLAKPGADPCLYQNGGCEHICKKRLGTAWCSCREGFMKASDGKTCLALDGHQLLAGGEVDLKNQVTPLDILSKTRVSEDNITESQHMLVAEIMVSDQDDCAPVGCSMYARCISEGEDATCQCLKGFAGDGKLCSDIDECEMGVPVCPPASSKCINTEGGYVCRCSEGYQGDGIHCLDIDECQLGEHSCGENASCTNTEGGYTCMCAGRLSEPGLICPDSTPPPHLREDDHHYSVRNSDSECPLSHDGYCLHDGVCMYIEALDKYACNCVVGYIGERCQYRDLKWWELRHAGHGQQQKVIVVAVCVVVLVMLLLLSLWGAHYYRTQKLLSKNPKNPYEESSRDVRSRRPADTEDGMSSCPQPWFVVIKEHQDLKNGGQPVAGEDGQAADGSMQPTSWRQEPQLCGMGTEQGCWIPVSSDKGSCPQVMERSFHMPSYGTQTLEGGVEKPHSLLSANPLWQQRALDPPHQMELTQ

Measured: binding

AGVLCSNFYHPLCHSGG (peptide, not shown: large carriers) [P143 phage (pIII CNL5)]
binds: [1] | [2] | [3] | [4] | [5] | b-sEGFR-strep (human)

AGVLCHRYYHPICYTGG (peptide, not shown: large carriers) [P145 phage (pIII CNL5)]
binds: [6] | [1] | [2] | [3] | [4] | [5] | [7] | b-sEGFR-strep (human)

AGTLCRSFFHPLCYAGG (peptide, not shown: large carriers) [P146 phage (pIII CNL5)]
binds: [1] | [2] | [3] | [4] | [5] | b-sEGFR-strep (human)

GGGSGCLDALWQCVYGGGSGGSGG (peptide, not shown: large carriers) [P174 phage (S16, pIX)]
binds: [6] | [8] | [9] | [10] | [11] | [12] | [5] | [13] | [7]

GGGLPDDSLPELICKVRGGGGSGGSGG (peptide, not shown: large carriers) [P175 phage (S15, pIX)]
binds: [9] | [10] | [11] | [5] | [13] | [7]

GGGKTCVSTTFDLWFVCFAGGGSGGSGG (peptide, not shown: large carriers) [P176 phage (S20, pIX)]
binds: [6] | [8] | [9] | [11] | [12] | [5] | [13] | [7]

GGGGPCVLIRDYYLLCLEGGGSGGSGG (peptide, not shown: large carriers) [P179 phage (S19, pIX)]
binds: [10]

GGGDPCTWEVWGRECLQGGGSGGSGG (peptide, not shown: large carriers) [P190 phage, pIX display (190-phagemid)]
binds: [14] | [15]

GGGMFCFRWYAGWSCVSGGGSGGSGG (peptide, not shown: large carriers) [P189 phage (S18, pIX)]
binds: [16] | [5]

AGHFYPTKTPGYGG (peptide, not shown: large carriers) [P191 phage (CNL1-11, pIII)]
binds: [15]

AGAASRALWAFNSDGG (peptide, not shown: large carriers) [P192 phage (CNL1-11, pIII)]
binds: [15]

AGSYYWGYTVDIRRGG (peptide, not shown: large carriers) [P193 phage (CNL1-11, pIII)]
binds: [15] | [5]

AGSECFPLAPDWLSCILGG (peptide, not shown: large carriers) [P194 phage (CNL1-11, pIII)]
binds: [16] | [5]

GGGTDCVIFGLETYCLRGGGSGGSGG (peptide, not shown: large carriers) [P173 phage (S18, pIX)]
binds: [15] | [5] | [7]

Reference: patent US20100098681A1
